This data set relates to R11 (WP_162024566-LBD). Kind of data set: Microcalorimetric titration (ITC) of the R11 LBD with ligands. Set-up: species or system Lentimonas sp. CC4. Conditions: One binding site model, * = hyperbolic curve.
On to `O=c1[nH]cnc2c1ncn2[C@@H]1O[C@H](CO)[C@@H](O)[C@H]1O` [Inosine], for which the “N value, R11” value amounted to 0.16.

For `Cc1c[nH]c(=O)[nH]c1=O` [Thymine], the “N value, R11” value stood at 0.19. For `Nc1ncnc2[nH]cnc12` [Adenine], the “N value, R11” value turned out to be 0.22.
